Reference: article PMC7404097
These are yes or no findings as the source states them, for the method shown. In cells and extracts the contact can be indirect. A result given as binding can be weak or reduced; the word gives no strength.

Protein sequences, listed by entry. Tags and fused reporters are not part of them. Lines headed by an entry give the natural chain unless they say otherwise; changes in a name come on top.
UniProt P30550: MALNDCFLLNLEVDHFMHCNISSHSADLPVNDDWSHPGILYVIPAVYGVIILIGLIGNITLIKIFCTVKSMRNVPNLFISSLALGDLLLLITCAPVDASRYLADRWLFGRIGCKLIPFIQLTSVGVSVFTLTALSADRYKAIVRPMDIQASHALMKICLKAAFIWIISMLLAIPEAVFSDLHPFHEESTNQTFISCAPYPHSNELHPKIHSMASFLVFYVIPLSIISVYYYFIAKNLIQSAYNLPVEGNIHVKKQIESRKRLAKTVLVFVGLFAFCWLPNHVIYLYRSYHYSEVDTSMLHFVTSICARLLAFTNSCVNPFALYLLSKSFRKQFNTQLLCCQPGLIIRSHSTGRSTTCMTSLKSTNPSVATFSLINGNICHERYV
UniProt P49407: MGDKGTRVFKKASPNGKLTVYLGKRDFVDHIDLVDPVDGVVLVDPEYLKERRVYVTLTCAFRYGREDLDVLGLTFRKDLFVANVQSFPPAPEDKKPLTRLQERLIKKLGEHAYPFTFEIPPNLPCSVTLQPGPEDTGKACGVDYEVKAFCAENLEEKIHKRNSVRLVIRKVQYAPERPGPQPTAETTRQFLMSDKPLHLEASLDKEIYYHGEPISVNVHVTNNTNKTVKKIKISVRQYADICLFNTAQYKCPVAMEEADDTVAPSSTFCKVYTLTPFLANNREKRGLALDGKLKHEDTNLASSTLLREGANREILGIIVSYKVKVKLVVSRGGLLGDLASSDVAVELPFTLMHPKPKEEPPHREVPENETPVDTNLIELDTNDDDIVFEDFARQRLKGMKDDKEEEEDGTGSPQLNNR

Target: GRPRΔC-11S (C-tail truncated GRPR with 11S) (UniProt P30550)
Assay: split reporter; direct assay: GPCR-11S and 114-arrestin co-expressed in live HEK293 cells (transient transfection, MultiPrime plasmid or baculovirus); 10 min baseline, then 1 µM agonist (isoproterenol, DOTA-TOC, AMBA) or 485 nm light for rhodopsin; furimazine luminescence over time

Row | binding | Substance
1 | binds | 114-β-arrestin-1 (β-arrestin-1 with the small NanoLuc subunit 114 at its N-terminus) (from UniProt P49407 1-418)
2 | binds | 114-β-arrestin-2 (β-arrestin-2 with the small NanoLuc subunit 114 at its N-terminus) (from UniProt P32121 1-409)
